Data on 36 targets can be found in the supplement of paper PMC7666118.

By UniProt entry, the sequences of proteins in these tests, tags left out. Where a name states a change or a piece, a line headed by the entry shows the natural chain unless it says otherwise.
UniProt Q6ZRQ5: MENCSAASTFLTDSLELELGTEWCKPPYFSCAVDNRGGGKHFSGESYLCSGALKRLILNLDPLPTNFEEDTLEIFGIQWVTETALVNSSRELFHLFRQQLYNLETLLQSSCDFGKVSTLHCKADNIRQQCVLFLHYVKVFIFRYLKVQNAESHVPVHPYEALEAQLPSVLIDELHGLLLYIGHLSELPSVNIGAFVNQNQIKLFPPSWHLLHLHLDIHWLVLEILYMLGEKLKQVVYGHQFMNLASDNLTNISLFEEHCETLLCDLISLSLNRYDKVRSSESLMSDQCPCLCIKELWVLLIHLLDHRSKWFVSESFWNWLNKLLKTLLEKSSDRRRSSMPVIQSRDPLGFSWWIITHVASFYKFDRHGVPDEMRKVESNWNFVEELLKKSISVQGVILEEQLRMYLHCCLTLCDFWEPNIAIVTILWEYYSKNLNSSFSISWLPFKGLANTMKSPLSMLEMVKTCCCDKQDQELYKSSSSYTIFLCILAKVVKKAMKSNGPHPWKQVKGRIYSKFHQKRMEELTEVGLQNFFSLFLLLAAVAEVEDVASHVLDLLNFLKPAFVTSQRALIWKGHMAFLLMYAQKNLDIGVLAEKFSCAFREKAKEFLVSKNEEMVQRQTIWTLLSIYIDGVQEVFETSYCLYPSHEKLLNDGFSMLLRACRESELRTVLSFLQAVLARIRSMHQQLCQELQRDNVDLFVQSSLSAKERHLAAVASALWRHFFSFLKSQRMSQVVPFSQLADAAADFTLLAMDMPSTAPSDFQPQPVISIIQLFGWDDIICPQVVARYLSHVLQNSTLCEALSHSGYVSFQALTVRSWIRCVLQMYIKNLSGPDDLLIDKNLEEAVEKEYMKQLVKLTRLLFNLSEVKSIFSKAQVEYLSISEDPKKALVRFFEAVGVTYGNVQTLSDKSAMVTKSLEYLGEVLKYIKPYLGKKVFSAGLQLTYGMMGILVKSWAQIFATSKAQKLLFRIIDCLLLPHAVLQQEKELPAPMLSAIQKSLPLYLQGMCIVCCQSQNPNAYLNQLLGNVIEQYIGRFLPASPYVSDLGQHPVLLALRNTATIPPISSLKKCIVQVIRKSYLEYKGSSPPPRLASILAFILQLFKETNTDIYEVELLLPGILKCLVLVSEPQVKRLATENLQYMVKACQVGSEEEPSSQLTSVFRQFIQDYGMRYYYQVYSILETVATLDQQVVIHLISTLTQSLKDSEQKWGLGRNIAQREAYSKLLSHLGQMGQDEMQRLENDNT
UniProt Q9H6K1: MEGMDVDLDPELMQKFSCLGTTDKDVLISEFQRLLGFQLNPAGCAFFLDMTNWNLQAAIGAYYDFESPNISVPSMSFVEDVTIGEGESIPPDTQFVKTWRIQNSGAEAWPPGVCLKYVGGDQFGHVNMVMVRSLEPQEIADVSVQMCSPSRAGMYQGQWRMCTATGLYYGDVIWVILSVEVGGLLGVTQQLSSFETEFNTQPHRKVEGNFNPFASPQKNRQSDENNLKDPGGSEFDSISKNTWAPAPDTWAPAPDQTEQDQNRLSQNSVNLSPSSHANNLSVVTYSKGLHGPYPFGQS
UniProt Q9H6V9: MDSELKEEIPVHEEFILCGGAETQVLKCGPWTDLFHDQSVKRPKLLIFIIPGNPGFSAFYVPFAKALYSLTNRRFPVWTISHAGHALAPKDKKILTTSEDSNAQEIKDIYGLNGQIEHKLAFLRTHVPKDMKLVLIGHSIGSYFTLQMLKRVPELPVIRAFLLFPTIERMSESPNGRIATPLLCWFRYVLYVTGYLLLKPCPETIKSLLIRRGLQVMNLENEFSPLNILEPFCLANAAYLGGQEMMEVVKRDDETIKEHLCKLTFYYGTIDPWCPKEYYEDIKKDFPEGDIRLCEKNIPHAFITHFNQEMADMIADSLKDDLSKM
UniProt Q9BY42: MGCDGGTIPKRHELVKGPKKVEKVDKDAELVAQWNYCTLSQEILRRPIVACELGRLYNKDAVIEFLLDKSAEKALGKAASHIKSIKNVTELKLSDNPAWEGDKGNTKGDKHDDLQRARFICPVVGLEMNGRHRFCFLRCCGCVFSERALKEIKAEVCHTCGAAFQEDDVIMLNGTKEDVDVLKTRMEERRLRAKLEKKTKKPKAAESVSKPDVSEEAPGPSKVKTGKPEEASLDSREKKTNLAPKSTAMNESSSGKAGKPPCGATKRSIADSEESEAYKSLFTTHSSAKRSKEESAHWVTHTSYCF
UniProt O15234, whole entry: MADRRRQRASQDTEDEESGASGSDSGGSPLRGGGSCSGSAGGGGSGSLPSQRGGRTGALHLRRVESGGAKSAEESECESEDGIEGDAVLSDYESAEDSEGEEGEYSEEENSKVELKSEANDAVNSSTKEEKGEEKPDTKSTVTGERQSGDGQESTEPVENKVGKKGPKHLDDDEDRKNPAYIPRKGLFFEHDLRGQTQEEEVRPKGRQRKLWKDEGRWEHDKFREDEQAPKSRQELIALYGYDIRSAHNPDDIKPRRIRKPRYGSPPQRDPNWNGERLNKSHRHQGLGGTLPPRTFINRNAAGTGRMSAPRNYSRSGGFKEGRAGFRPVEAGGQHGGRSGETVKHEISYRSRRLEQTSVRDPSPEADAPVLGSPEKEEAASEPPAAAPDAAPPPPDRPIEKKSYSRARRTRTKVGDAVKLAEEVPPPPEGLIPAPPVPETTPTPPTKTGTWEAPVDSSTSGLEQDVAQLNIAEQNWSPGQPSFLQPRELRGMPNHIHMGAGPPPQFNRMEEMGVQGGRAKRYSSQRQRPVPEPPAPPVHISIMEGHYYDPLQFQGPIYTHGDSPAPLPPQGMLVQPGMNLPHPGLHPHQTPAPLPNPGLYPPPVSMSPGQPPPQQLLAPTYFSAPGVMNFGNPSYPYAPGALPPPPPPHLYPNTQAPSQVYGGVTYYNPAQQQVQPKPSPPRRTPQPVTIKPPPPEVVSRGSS
UniProt Q9Y376: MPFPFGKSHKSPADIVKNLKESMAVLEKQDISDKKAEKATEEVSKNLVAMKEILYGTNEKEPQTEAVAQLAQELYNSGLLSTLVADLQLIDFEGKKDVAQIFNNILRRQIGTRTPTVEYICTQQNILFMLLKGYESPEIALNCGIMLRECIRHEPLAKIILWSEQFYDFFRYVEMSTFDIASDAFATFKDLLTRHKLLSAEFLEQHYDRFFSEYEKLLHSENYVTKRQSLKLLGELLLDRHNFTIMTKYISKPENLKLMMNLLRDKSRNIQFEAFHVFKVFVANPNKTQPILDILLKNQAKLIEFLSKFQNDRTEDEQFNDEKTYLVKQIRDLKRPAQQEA
UniProt Q8WUY1: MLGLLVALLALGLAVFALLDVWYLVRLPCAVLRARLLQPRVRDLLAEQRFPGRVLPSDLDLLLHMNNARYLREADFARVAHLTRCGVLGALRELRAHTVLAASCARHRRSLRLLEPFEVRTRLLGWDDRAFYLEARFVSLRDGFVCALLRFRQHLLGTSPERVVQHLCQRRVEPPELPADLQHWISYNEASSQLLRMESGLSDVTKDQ
UniProt Q9GZP4: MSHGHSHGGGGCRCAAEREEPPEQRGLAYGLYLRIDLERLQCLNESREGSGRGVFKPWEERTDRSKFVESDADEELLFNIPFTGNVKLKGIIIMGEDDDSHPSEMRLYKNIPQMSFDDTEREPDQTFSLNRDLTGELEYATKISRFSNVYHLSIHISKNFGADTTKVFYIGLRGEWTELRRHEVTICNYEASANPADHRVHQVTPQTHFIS
UniProt Q8WVR3: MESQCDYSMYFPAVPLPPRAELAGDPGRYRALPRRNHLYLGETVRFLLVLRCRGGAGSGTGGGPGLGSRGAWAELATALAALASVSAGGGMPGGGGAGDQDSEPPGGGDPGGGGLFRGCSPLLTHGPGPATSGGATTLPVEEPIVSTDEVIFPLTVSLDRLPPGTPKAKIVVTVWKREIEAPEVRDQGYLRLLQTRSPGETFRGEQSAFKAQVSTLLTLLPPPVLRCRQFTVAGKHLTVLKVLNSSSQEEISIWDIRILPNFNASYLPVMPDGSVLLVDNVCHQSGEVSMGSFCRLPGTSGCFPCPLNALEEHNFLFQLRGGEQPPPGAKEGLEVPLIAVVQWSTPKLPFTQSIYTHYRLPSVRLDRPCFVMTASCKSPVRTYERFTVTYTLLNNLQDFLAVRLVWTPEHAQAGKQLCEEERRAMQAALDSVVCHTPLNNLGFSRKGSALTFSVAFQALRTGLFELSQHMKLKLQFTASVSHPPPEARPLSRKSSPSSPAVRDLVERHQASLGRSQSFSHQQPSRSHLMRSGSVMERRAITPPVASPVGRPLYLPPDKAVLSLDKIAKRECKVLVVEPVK
UniProt Q8IXQ3: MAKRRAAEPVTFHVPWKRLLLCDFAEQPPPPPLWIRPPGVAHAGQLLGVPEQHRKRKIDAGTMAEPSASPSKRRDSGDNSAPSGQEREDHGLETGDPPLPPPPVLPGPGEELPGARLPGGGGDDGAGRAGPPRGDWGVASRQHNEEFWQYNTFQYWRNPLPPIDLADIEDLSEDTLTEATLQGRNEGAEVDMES
UniProt Q6NT16: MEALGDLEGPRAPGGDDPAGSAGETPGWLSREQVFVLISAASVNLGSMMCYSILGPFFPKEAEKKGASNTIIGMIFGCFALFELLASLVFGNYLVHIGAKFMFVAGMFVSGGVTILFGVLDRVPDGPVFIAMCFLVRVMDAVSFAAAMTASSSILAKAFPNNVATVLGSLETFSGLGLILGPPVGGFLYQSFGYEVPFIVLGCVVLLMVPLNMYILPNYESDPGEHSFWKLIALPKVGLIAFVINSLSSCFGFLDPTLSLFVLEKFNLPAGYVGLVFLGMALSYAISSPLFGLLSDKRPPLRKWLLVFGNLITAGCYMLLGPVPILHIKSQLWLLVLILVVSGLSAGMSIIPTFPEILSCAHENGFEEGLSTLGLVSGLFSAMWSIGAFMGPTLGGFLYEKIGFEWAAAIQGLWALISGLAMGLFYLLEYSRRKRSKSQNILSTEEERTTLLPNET
UniProt Q8N6M3: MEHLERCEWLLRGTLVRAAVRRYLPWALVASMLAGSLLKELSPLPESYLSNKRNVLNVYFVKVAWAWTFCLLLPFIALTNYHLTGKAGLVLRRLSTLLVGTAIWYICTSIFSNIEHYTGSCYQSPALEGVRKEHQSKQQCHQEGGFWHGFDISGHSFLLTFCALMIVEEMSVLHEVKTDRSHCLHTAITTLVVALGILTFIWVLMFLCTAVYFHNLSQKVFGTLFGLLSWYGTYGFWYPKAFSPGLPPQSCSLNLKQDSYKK
UniProt P04040: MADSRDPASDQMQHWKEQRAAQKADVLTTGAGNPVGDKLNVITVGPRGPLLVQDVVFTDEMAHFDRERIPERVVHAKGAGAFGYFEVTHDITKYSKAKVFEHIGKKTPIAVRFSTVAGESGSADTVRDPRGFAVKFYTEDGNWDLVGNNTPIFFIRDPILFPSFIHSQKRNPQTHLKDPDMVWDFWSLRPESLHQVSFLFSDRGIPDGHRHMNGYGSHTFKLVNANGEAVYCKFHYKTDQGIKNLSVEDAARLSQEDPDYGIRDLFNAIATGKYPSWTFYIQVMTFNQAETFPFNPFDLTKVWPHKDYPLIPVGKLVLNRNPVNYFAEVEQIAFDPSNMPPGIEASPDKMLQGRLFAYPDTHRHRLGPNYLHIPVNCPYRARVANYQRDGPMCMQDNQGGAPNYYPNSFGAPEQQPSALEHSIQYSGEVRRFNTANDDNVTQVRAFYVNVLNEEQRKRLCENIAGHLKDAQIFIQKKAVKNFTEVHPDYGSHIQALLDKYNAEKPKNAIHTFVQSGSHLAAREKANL
UniProt Q96ER9: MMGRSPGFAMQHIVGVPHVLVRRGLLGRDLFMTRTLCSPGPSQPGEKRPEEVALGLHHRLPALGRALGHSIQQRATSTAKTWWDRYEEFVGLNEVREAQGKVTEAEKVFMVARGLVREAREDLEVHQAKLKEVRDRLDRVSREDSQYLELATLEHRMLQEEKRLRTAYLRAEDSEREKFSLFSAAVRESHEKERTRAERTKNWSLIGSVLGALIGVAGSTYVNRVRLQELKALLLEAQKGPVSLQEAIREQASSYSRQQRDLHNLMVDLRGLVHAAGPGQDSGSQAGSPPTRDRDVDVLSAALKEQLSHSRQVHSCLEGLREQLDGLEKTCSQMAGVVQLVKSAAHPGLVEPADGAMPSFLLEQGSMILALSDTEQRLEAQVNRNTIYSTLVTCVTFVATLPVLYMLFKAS
UniProt Q7L592: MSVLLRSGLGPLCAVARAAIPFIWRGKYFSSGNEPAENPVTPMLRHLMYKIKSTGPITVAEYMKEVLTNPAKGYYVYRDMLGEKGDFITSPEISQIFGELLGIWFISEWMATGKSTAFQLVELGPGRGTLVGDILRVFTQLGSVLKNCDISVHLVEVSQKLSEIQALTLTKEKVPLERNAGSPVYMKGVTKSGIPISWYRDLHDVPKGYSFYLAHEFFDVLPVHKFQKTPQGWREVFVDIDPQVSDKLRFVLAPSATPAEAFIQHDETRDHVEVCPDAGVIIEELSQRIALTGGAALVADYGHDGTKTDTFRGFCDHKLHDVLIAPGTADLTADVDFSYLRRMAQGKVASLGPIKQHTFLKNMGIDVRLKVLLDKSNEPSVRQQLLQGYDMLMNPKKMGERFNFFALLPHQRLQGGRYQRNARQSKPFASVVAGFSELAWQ

This is one part of the list.

Compound in the experiment: COc1ccc(Cn2ccc3cc(C)c(C(=O)NO)cc32)cc1
Nature of the experiment: dose-dependent thermal stabilisation call (2D-TPP, DLPTP, 10% FDR) (binary (1 = stabilised)); higher = stabilised by the compound. Particulars: system: HL-60 intact cells; concentration range 0.04-10 µM. The method, then: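 2D thermal proteome profiling in intact HL-60 cells treated with BRD-3811 (0, 0.04, 0.29, 2, 10 uM) for 90 min at 37 C, then heated 3 min at one of 12 temperatures (42-63.9 C). Soluble protein was quantified by TMT10 MS. The value is the DLPTP call of the paper: dose-dependent thermal stabilisation over all temperatures at 10% FDR (F-test of a dose-response against a flat model); one experiment, one call per tested protein.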
Take C6ORF167 (UniProt Q6ZRQ5): the “dose-dependent thermal stabilisation call” value is inactive: 0.

In the case of C6ORF106 (UniProt Q9H6K1), the “dose-dependent thermal stabilisation call” value was inactive: 0. Consider CCNB1 (UniProt P14635), for which the “dose-dependent thermal stabilisation call” value was inactive: 0. C9ORF82 (UniProt Q9H8G2): the “dose-dependent thermal stabilisation call” value was inactive: 0. The result for CCDC44 (UniProt Q9BSH4) reads inactive: 0; that for CASP3 (UniProt P42574), inactive: 0. Take C2ORF43 (UniProt Q9H6V9): the “dose-dependent thermal stabilisation call” value is inactive: 0. Next, CCDC124 (UniProt Q96CT7): inactive: 0. As to C22ORF28 (UniProt Q9Y3I0), the “dose-dependent thermal stabilisation call” value is inactive: 0. Next, C20ORF43 (UniProt Q9BY42): inactive: 0.

In the case of CASC3 (UniProt O15234), the “dose-dependent thermal stabilisation call” value is inactive: 0. The result for CCDC61 (UniProt Q9Y6R9) reads inactive: 0; that for C7ORF23 (UniProt Q9BU79), inactive: 0; that for C8ORF30A (UniProt Q9BTY7), inactive: 0.

CAB39 (UniProt Q9Y376): the “dose-dependent thermal stabilisation call” value is inactive: 0.

As to C20ORF27 (UniProt Q9GZN8), the “dose-dependent thermal stabilisation call” value is inactive: 0.

As for C1ORF198 (UniProt Q9H425), the “dose-dependent thermal stabilisation call” value is inactive: 0. The result for C1ORF156 (UniProt O95568) reads inactive: 0. In the case of CCBL1 (UniProt Q16773), the “dose-dependent thermal stabilisation call” value was inactive: 0. C8ORF55 (UniProt Q8WUY1): the “dose-dependent thermal stabilisation call” value was inactive: 0. C1ORF128 (UniProt Q9GZP4): the “dose-dependent thermal stabilisation call” value is inactive: 0. Next, CD151 (UniProt P48509): inactive: 0; CCDC90A (UniProt Q96AQ8): inactive: 0; CBFB (UniProt Q13951): inactive: 0. Next, C9ORF126 (UniProt Q8N9R8): inactive: 0; CACYBP (UniProt Q9HB71): inactive: 0. CANT1 (UniProt Q8WVQ1): the “dose-dependent thermal stabilisation call” value was inactive: 0. CAMK2G (UniProt Q13555): the “dose-dependent thermal stabilisation call” value is inactive: 0. In the case of C7ORF43 (UniProt Q8WVR3), the “dose-dependent thermal stabilisation call” value was inactive: 0. Regarding C9ORF40 (UniProt Q8IXQ3), the “dose-dependent thermal stabilisation call” value was inactive: 0. As for C6ORF192 (UniProt Q6NT16), the “dose-dependent thermal stabilisation call” value is inactive: 0. Next, C20ORF142 (UniProt Q8N6M3): inactive: 0; CAT (UniProt P04040): inactive: 0; CCDC51 (UniProt Q96ER9): inactive: 0. As to C2ORF56 (UniProt Q7L592), the “dose-dependent thermal stabilisation call” value is inactive: 0.

On to CACNA2D1 (UniProt P54289), for which the “dose-dependent thermal stabilisation call” value is inactive: 0.
